This is one part of the list.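 The calls were made as follows: active = dose-dependent thermal stabilisation significant by F-test of dose-response against flat model at 10% FDR; inactive = not significant.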
biological target: T1, SARS2 (UniProt Q9NP81); experiment: dose-dependent thermal stabilisation call (2D-TPP, DLPTP, 10% FDR) (binary (1 = stabilised)); higher = stabilised by the compound; conditions: system: Jurkat gel-filtered lysate; concentration range 1-500 µM
T1 sequence (whole entry): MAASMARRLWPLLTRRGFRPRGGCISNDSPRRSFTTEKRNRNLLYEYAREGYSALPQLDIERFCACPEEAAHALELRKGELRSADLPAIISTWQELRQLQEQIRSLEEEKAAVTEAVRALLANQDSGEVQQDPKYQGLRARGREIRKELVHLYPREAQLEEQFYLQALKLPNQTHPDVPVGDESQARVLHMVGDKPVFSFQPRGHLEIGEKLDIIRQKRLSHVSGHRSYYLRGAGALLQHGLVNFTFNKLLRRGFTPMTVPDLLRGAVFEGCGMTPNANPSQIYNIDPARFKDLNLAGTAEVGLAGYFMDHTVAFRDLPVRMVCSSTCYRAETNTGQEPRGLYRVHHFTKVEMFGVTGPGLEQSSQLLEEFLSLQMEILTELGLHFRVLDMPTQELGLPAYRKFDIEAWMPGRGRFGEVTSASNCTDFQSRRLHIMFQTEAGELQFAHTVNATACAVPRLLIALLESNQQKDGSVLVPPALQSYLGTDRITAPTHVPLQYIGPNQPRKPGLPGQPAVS
Procedure: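 2D thermal proteome profiling in gel-filtered Jurkat E6.1 lysate (2 mg/ml) treated with NaGTP (0, 1, 10, 100, 500 uM) for 10 min at room temperature, then heated 3 min at one of 12 temperatures (42-63.9 C). Soluble protein was quantified by TMT10 MS. The value is the DLPTP call of the paper: dose-dependent thermal stabilisation over all temperatures at 10% FDR (F-test of a dose-response against a flat model); one experiment, one call per tested protein.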

SMILES	dose-dependent thermal stabilisation call
Nc1nc2c(ncn2[C@@H]2O[C@H](COP(=O)(O)OP(=O)(O)OP(=O)(O)O)[C@@H](O)[C@H]2O)c(=O)[nH]1	active: 1
